Data source: PubChem BioAssay AID1224830 (NIAID, 2016)
Screen: 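Host factors that control LPS-induced TNF expression in human macrophages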 (primary screen). Cells: human THP-1 monocytic leukaemia cells, TNF dual-luciferase reporter clone, PMA-differentiated to macrophage-like cells. Knock-down reagent: siRNA pool against human genes, 50 nM. Timing: LPS for 4 h, given about 3 days after siRNA transfection. Treatment: bacterial LPS (TLR4 ligand), 10 ng/ml. Measurement: 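Ratio of firefly to renilla light, scaled to the plate median and expressed as a robust z-score per replicate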. Direction: TNF reporter robust z-score: higher = stronger TNF reporter response to LPS. Hit rule: 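Each well counts as active if its z-score is over 2.8 or under -1.5; controls are left without a call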.
Shown is a random part of about 18,000 deposited reagents. About 2,900 of them (16%) were called active. 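Calls are made per well; low scores hint the gene aids the LPS response, high scores that it dampens it.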 Repeated entries: four replicate wells of each siRNA pool.

Silencing of CELA3A (chymotrypsin like elastase 3A) came out at: TNF reporter robust z-score 0.09; inactive. CELA3A (chymotrypsin like elastase 3A) showed TNF reporter robust z-score -0.11; inactive. CELA3A (chymotrypsin like elastase 3A) showed TNF reporter robust z-score -0.6; inactive. CELA3A (chymotrypsin like elastase 3A) showed TNF reporter robust z-score -0.87; inactive. Against SRP68 (signal recognition particle 68), the entry reads TNF reporter robust z-score -0.78; inactive. For SRP68 (signal recognition particle 68), the entry reads TNF reporter robust z-score -0.67; inactive.

With knock-down of SRP68 (signal recognition particle 68) the results were TNF reporter robust z-score -1.44; inactive. For SRP68 (signal recognition particle 68) the deposit lists TNF reporter robust z-score -1.04; inactive. Knock-down of OR1L4 (olfactory receptor family 1 subfamily L member 4) came out at: TNF reporter robust z-score 0.74; inactive. Against OR1L4 (olfactory receptor family 1 subfamily L member 4), the entry reads TNF reporter robust z-score 2.04; inactive. Depletion of OR1L4 (olfactory receptor family 1 subfamily L member 4) came out at: TNF reporter robust z-score 0.08; inactive. Against OR1L4 (olfactory receptor family 1 subfamily L member 4), the entry reads TNF reporter robust z-score 0.25; inactive.

With knock-down of GPSM1 (G protein signaling modulator 1) the results were TNF reporter robust z-score 1.95; inactive. With knock-down of GPSM1 (G protein signaling modulator 1), the record shows TNF reporter robust z-score 0.76; inactive. Depletion of GPSM1 (G protein signaling modulator 1) came out at: TNF reporter robust z-score 2.04; inactive. For GPSM1 (G protein signaling modulator 1), the entry reads TNF reporter robust z-score 2.02; inactive. After knock-down of ACCSL, the screen gave TNF reporter robust z-score -0.44; inactive. ACCSL showed TNF reporter robust z-score 0.64; inactive.

Against ACCSL, the entry reads TNF reporter robust z-score 0.35; inactive. Knock-down of ACCSL gave: TNF reporter robust z-score 0.24; inactive. With knock-down of MORN1 (MORN repeat containing 1) the results were TNF reporter robust z-score -0.08; inactive. With knock-down of MORN1 (MORN repeat containing 1), the record shows TNF reporter robust z-score -0.22; inactive. Silencing of MORN1 (MORN repeat containing 1) came out at: TNF reporter robust z-score -0.38; inactive. MORN1 (MORN repeat containing 1) scored TNF reporter robust z-score 0.82; inactive.

Against DEFB119 (defensin beta 119) the deposit lists TNF reporter robust z-score -1.14; inactive. After knock-down of DEFB119 (defensin beta 119), the screen gave TNF reporter robust z-score 0.25; inactive. DEFB119 (defensin beta 119) scored TNF reporter robust z-score -0.22; inactive. For DEFB119 (defensin beta 119) the deposit lists TNF reporter robust z-score -0.51; inactive. FCGR3B (Fc gamma receptor IIIb) gave TNF reporter robust z-score -0.89; inactive. Silencing of FCGR3B (Fc gamma receptor IIIb) gave: TNF reporter robust z-score -0.5; inactive.

FCGR3B (Fc gamma receptor IIIb) gave TNF reporter robust z-score -1.14; inactive. For FCGR3B (Fc gamma receptor IIIb), the values are TNF reporter robust z-score -0.46; inactive. Against MAP3K19 (mitogen-activated protein kinase kinase kinase 19), the entry reads TNF reporter robust z-score 0.38; inactive. Against MAP3K19 (mitogen-activated protein kinase kinase kinase 19), the entry reads TNF reporter robust z-score 0.31; inactive. For MAP3K19 (mitogen-activated protein kinase kinase kinase 19), the entry reads TNF reporter robust z-score 2.01; inactive. For MAP3K19 (mitogen-activated protein kinase kinase kinase 19), the values are TNF reporter robust z-score -0.2; inactive.

After knock-down of RAB6D (RAB6D, member RAS oncogene family) the results were TNF reporter robust z-score -1.42; inactive. Against RAB6D (RAB6D, member RAS oncogene family), the entry reads TNF reporter robust z-score -1.32; inactive. RAB6D (RAB6D, member RAS oncogene family) gave TNF reporter robust z-score -0.74; inactive. Against RAB6D (RAB6D, member RAS oncogene family) the deposit lists TNF reporter robust z-score -1.25; inactive. Silencing of FAM120B (family with sequence similarity 120 member B) came out at: TNF reporter robust z-score 0.81; inactive. For FAM120B (family with sequence similarity 120 member B), the entry reads TNF reporter robust z-score -0.28; inactive.

FAM120B (family with sequence similarity 120 member B) scored TNF reporter robust z-score 0.15; inactive. Silencing of FAM120B (family with sequence similarity 120 member B) gave: TNF reporter robust z-score -0.85; inactive. Depletion of UGGT1 (UDP-glucose glycoprotein glucosyltransferase 1) came out at: TNF reporter robust z-score 0.62; inactive. UGGT1 (UDP-glucose glycoprotein glucosyltransferase 1) scored TNF reporter robust z-score -0.36; inactive. Knock-down of UGGT1 (UDP-glucose glycoprotein glucosyltransferase 1) resulted in: TNF reporter robust z-score -1.23; inactive. UGGT1 (UDP-glucose glycoprotein glucosyltransferase 1) showed TNF reporter robust z-score -0.53; inactive.
